Experimental data taken from publication PMC7016005 (2020).
Where a chain is given by its changes, count along the chain named. Names may count otherwise. Results are given in words; binding and its absence hold for the method and conditions named. In cells and extracts the contact can be indirect. Some results given as binding are weak or reduced against the parent protein; the word gives no strength.

Amino acid sequences for entries named in this document (tags omitted). A change or cut given only in a name is not applied to a line headed by its entry.
UniProt P15806: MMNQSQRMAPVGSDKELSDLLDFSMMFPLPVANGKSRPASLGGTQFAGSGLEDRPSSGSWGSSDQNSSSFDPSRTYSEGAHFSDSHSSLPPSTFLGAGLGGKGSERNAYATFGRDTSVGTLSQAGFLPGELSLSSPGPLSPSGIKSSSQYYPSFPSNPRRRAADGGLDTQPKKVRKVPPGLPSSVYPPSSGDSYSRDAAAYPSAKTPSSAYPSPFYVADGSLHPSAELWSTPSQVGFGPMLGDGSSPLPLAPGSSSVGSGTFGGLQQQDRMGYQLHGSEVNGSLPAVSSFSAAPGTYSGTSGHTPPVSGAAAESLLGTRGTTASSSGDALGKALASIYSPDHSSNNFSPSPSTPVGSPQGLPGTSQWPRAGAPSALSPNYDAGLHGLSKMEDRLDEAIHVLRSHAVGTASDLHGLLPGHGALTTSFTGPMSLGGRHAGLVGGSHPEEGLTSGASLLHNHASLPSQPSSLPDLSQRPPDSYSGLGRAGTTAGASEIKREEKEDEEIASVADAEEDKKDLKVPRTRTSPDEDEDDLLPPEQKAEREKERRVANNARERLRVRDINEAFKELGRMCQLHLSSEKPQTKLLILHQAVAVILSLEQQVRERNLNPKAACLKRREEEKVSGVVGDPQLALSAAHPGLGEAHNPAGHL

B1: mouse Twist1, wildtype (protein, UniProt P26687 1-206)
chain: MMQDVSSSPVSPADDSLSNSEEEPDRQQPASGKRGARKRRSSRRSAGGSAGPGGATGGGIGGGDEPGSPAQGKRGKKSAGGGGGGGAGGGGGGGGGSSSGGGSPQSYEELQTQRVMANVRERQRTQSLNEAFAALRKIIPTLPSDKLSKIQTLKLAARYIDFLYQVLQSDELDSKMASCSYVAHERLSYAFSVWRMEGAWSMSASH
B2: mouse Twist1-A190T (protein, UniProt P26687 1-206)
chain: B1 chain with A190T
B3: mouse Twist1-F191S (protein, UniProt P26687 1-206)
chain: B1 chain with F191S
B4: mouse Twist1-S192P (protein, UniProt P26687 1-206)
chain: B1 chain with S192P

target: mouse E2A (mouse) (UniProt P15806); experiment: co-IP; HEK293T cells transfected with tagged E2A and wildtype or mutant Twist1; lysis buffer 20 mM Tris-HCl pH 7.5, 1 mM EDTA, 150 mM NaCl, 0.5% NP-40; supernatant incubated with M2 Magnetic Beads overnight; E2A as bait

Binder	binding
B1	binds
B2	binds
B3	binds
B4	no binding
